Assay results from patent publication US12521402B2, “Biomarker and drug combinations for heart failure prediction” (Endothelium Scanning Nanotechnology Limited, priority 2022, dated 2026).

Assay: Saliva proteomics: biomarker quantification by mass spectrometry SWATH in participants at risk of heart failure vs controls
Parameters: species or system human
Conditions: for AtRisk average: 'at risk' of heart failure group mean; for Control average: control group mean
[1] = differential expression (fold) control vs 'at risk' group, saliva
[2] = saliva, mass spectrometry SWATH quantification, 20 samples
[3] = differential expression (fold) between control and at-risk averages, saliva
[4] = saliva, mass spectrometry SWATH, 20 samples
[5] = differential expression (fold) control vs 'at risk', printed as larger/smaller average whatever the direction
[6] = saliva, mass spectrometry SWATH quantification

Row | Substance | Control vs Risk [1] | AtRisk average [2] | Control average [2] | Control vs Risk [5] | AtRisk average [6] | Control average [6] | further results
1 | HEMO | 1.93 | 4,369,070 ng/ml | 2,258,007 ng/ml |  |  |  | 
2 | TEBP | 2.35 | 113,156 ng/ml | 48,241 ng/ml |  |  |  | 
3 | CAZA2 |  |  |  |  |  |  | Control vs Risk [3]: 1.81; AtRisk average [4]: 277,691 ng/ml; Control average [4]: 502,909 ng/ml
4 | HV374 |  |  |  |  |  |  | Control vs Risk [3]: 1.78; AtRisk average [4]: 1,664,922 ng/ml; Control average [4]: 937,879 ng/ml
5 | TSP1 |  |  |  |  |  |  | Control vs Risk [3]: 1.50; AtRisk average [4]: 1,536,784 ng/ml; Control average [4]: 2,297,854 ng/ml
6 | CHID1 |  |  |  | 2.73 | 9,956 ng/ml | 27,186 ng/ml | 
7 | ASC | 2.27 | 283,431 ng/ml | 125,033 ng/ml |  |  |  | 
8 | TM11D | 1.95 | 1,224,393 ng/ml | 626,942 ng/ml |  |  |  | 
9 | STAT (DSSEEKFLRRIGRFGYGYGPYQPVPEQPLYPQPYQPQYQQYTF; UniProt P02808 20-62, looked up) |  |  |  | 2.58 | 82,053,253 ng/ml | 31,783,683 ng/ml | 
10 | HV434 |  |  |  | 2.66 | 200,507 ng/ml | 532,600 ng/ml | 
11 | ANXA5 |  |  |  | 2.57 | 940,764 ng/ml | 366,465 ng/ml | 
12 | IGLC2 | 1.92 | 18,916,758 ng/ml | 36,285,258 ng/ml |  |  |  | 
13 | ELAF (AQEPVKGPVSTKPGSCPIILIRCAMLNPPNRCLKDTDCPGIKKCCEGSCGMACFVPQ; Elafin; UniProt P19957 61-117, looked up) |  |  |  | 2.92 | 196,903 ng/ml | 67,483 ng/ml | 
14 | TIM13 | 2.00 | 190,669 ng/ml | 95,356 ng/ml |  |  |  | 
15 | PSMA8 |  |  |  | 3.12 | 66,929 ng/ml | 21,481 ng/ml | 
16 | MUC5B |  |  |  | 3.18 | 324,735,024 ng/ml | 1,033,569,305 ng/ml | 
17 | TRY1 | 2.43 | 326,267 ng/ml | 792,519 ng/ml |  |  |  | 
18 | CALU | 2.40 | 36,213 ng/ml | 15,110 ng/ml |  |  |  | 
19 | TBA1B | 2.15 | 221,191 ng/ml | 474,945 ng/ml |  |  |  | 
20 | ATOX1 | 2.13 | 26,304 ng/ml | 12,336 ng/ml |  |  |  | 
21 | GPC5B |  |  |  | 3.98 | 28,524 ng/ml | 113,392 ng/ml | 
22 | HV102 |  |  |  | 3.54 | 874,755 ng/ml | 3,094,358 ng/ml | 
23 | KI21A |  |  |  | 10.00 | 706,251 ng/ml | 7,062,544 ng/ml | 

Row | Substance | Control vs Risk [1] | AtRisk average [2] | Control average [2] | Control vs Risk [5] | AtRisk average [6] | Control average [6] | further results
24 | FURIN |  |  |  |  |  |  | Control vs Risk [3]: 1.83; AtRisk average [4]: 667,143 ng/ml; Control average [4]: 1,220,714 ng/ml
25 | GRB2 |  |  |  | 2.62 | 148,197 ng/ml | 56,510 ng/ml | 
26 | SIL1 |  |  |  | 2.58 | 67,153 ng/ml | 26,005 ng/ml | 
27 | RAB1B | 2.29 | 714,602 ng/ml | 312,439 ng/ml |  |  |  | 
28 | NPC2 |  |  |  |  |  |  | Control vs Risk [3]: 1.66; AtRisk average [4]: 1,004,339 ng/ml; Control average [4]: 605,322 ng/ml
29 | LV325 |  |  |  | 3.21 | 93,280 ng/ml | 299,219 ng/ml | 
30 | IGJ |  |  |  | 3.50 | 72,868,065 ng/ml | 254,949,858 ng/ml | 
31 | UFC1 | 2.00 | 50,044 ng/ml | 100,021 ng/ml |  |  |  | 
32 | IGLC7 |  |  |  | 13.72 | 1,339,761 ng/ml | 97,679 ng/ml | 
33 | KV311 | 2.29 | 5,711,696 ng/ml | 13,090,866 ng/ml |  |  |  | 
34 | LCN1 |  |  |  | 3.47 | 105,334,304 ng/ml | 30,330,854 ng/ml | 
35 | HEM2 | 2.04 | 108,388 ng/ml | 220,656 ng/ml |  |  |  | 
36 | PSD11 |  |  |  | 2.68 | 96,056 ng/ml | 35,871 ng/ml | 
37 | CHM1B |  |  |  |  |  |  | Control vs Risk [3]: 1.53; AtRisk average [4]: 59,139 ng/ml; Control average [4]: 38,770 ng/ml
38 | SODC |  |  |  |  |  |  | Control vs Risk [3]: 1.68; AtRisk average [4]: 1,051,120 ng/ml; Control average [4]: 626,977 ng/ml
39 | AGRIN |  |  |  |  |  |  | Control vs Risk [3]: 1.57; AtRisk average [4]: 38,787 ng/ml; Control average [4]: 60,836 ng/ml
40 | SET | 2.39 | 81,229 ng/ml | 34,044 ng/ml |  |  |  | 
41 | CALL3 |  |  |  | 4.02 | 4,638,566 ng/ml | 1,153,513 ng/ml | 
42 | FCGBP |  |  |  |  |  |  | Control vs Risk [3]: 1.80; AtRisk average [4]: 2,501,142 ng/ml; Control average [4]: 4,509,992 ng/ml
43 | STIP1 | 2.12 | 86,306 ng/ml | 183,292 ng/ml |  |  |  | 
44 | CBPE |  |  |  |  |  |  | Control vs Risk [3]: 1.84; AtRisk average [4]: 935,148 ng/ml; Control average [4]: 1,719,295 ng/ml
45 | LYSC |  |  |  | 2.74 | 300,657,309 ng/ml | 823,035,736 ng/ml | 
